# Results: the supplement of paper PMC6411743
# ± gives the standard deviation of the averaged measurements. Some of the results follow.
# Target: T1, PGLS (UniProt O95336)
# T1 sequence (whole entry): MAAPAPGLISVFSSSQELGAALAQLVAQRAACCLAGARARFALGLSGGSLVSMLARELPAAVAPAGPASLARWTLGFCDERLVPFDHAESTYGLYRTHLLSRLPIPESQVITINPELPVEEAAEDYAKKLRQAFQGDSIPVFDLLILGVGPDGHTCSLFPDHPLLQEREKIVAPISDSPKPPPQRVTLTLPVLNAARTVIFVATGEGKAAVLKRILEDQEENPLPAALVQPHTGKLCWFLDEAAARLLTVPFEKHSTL
# Assay: NP40-soluble protein abundance relative to vehicle (solubility fold change) (ratio); higher = more soluble protein in presence of GTP
# Description: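 Solubility proteome profiling in Jurkat crude lysate. Lysate was treated with Mg-GTP (0.1-10 mM) for 10 min at room temperature and 3 min at 37 °C, then solubilised with 0.8% NP40 and benzonase, followed by ultracentrifugation. Proteins were quantified by TMT10 LC-MS/MS; the value is the NP40-soluble abundance relative to the NP40-processed vehicle, from 3 independent experiments.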
structure (smiles),measurement,setting,value
Nc1nc2c(ncn2[C@@H]2O[C@H](COP(=O)(O)OP(=O)(O)OP(=O)(O)O)[C@@H](O)[C@H]2O)c(=O)[nH]1 [guanosine triphosphate],NP40-soluble protein abundance,concentration: 0.1mM,0.913 ± 0.031
same,NP40-soluble protein abundance,concentration: 0.5mM,0.857 ± 0.04
same,NP40-soluble protein abundance,concentration: 1mM,0.952 ± 0.016
same,NP40-soluble protein abundance,concentration: 2mM,0.9351 ± 0.0062
same,NP40-soluble protein abundance,concentration: 4mM,0.925 ± 0.022
same,NP40-soluble protein abundance,concentration: 6mM,0.903 ± 0.025
same,NP40-soluble protein abundance,concentration: 8mM,0.823 ± 0.13
same,NP40-soluble protein abundance,concentration: 10mM,0.886 ± 0.061
